In patent US8841254B2 (Howard Florey Institute of Experimental Physiology and …, priority 2001, dated 2014):

Assay: general procedure: Fmoc solid-phase peptide synthesis in flow; Fmoc-PAL-PEG-PS (Applied Biosystems); DIC/HOBt (A-chain); HBTU/DIEA (B-chain)
Details: late stage modification step

“Human Relaxin H3, A-Chain [Cys^11(Acm), Cys^24(Pyr)](1-24) Amide” gave a step yield of 4%.
